# In PubChem BioAssay AID1662 (Broad Institute, 2009):
# Screen size: about 300,000 compounds; about 4,000 (1.3%) were called active. Inconclusive means that the source gave no clear call. Such entries were picked first, then a sample of the others.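 The calls were made as follows: active = mean replicate score, as percent of positive control median, at least 50; inconclusive = mean below 50 but one replicate at or above 50; inactive = mean and every replicate below 50.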
# Assay: kanamycin survival loss of SKKanGAS strain – BacTiter-Glo luminescence, streptokinase expression inhibitor project, primary screen (AID 1662);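 also: strain carries kanamycin resistance gene driven by streptokinase promoter and grows in 40 µg/ml kanamycin; loss of luminescence reflects streptokinase promoter inhibition or plain growth inhibition; 0% = median of DMSO wells and 100% = positive control at its reference dose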
# Settings: S. pyogenes SKKanGAS, kanamycin growth, 6 h, at 7.5 µM, hits give high values
row,Compound,inhibition
1,COc1ccc2nc(NC(=O)c3ccccc3C(=O)O)sc2c1,inactive: -0.523%
2,COc1ccc(S(=O)(=O)N2CCN=C2SCc2cccc(C)c2)cc1,inconclusive: 44.1%
3,COc1ccc(NS(=O)(=O)c2ccc3ccccc3c2)c2ncccc12,active: 94.3%
4,CC(NC(=O)N1CCN(c2ccccc2F)CC1)c1ccc(F)c(F)c1 (stereo unspecified),inactive: 0.95%
5,CC(C)(C)n1nc(Cc2cccc3ccccc23)c2c(N)ncnc21,inactive: 12.8%
6,CCCCCCCC(=O)NNC(=O)c1c(O)c2ccccc2n(CCC)c1=O,active: 111%
7,O=C(Nc1cccnc1)Nc1cc(Cl)cc(Cl)c1,inconclusive: 45%
8,CC(=O)c1ccc(NC(=O)NC2CCCc3ccccc32)cc1 (stereo unspecified),inconclusive: 46.6%
9,CCC(=O)NC(=S)Nc1ccc(NC(=S)NC(=O)c2ccccc2)cc1,inconclusive: 39.2%
10,COc1cc([N+](=O)[O-])cc(/C=N\NC(=O)C2COc3ccccc3O2)c1O (stereo unspecified),active: 104%
11,CCn1cc(CN2CCC(n3nccc3NC(=O)Cc3ccccc3)CC2)cn1,inconclusive: 46.8%
12,COC(=O)N/N=C/c1cn(CCCOc2ccc(C)cc2)c2ccccc12,inactive: 8.83%
13,CC/C(=N\NC(=S)Nc1cccc(C)c1)c1ccccc1,active: 61.6%
14,Cn1c(O)c(N=NC(=S)Nc2ccccc2F)c2cc(S(=O)(=O)N3CCOCC3)ccc21,inconclusive: 31.4%
15,Cc1nnc(NC(=O)c2ccc(S(=O)(=O)N(C)Cc3ccccc3)cc2)o1,inconclusive: 44.8%
16,CCOc1cccc(N(C(=O)c2ccco2)C(C(=O)NC2CCCC2)c2cccnc2)c1 (stereo unspecified),inconclusive: 30.8%
17,COC(=O)C1=C(O)C(C(=O)OC)C(c2ccc(C)cc2)C(C#N)(C#N)C1c1ccc(C)cc1 (stereo unspecified),inconclusive: 41.3%
18,CCSc1cc(N2CCCC2)nc(-c2ccccc2)n1,inconclusive: 49.4%
19,COc1cccc(C(c2nnnn2Cc2ccco2)N2CCN(Cc3ccccc3)CC2)c1OC (stereo unspecified),inactive: -1.32%

# Given with tabs: entries from further up.
row	Compound	inhibition
5	CC(C)(C)n1nc(Cc2cccc3ccccc23)c2c(N)ncnc21	inactive: 12.8%
6	CCCCCCCC(=O)NNC(=O)c1c(O)c2ccccc2n(CCC)c1=O	active: 111%
7	O=C(Nc1cccnc1)Nc1cc(Cl)cc(Cl)c1	inconclusive: 45%
8	CC(=O)c1ccc(NC(=O)NC2CCCc3ccccc32)cc1 (stereo unspecified)	inconclusive: 46.6%
9	CCC(=O)NC(=S)Nc1ccc(NC(=S)NC(=O)c2ccccc2)cc1	inconclusive: 39.2%
10	COc1cc([N+](=O)[O-])cc(/C=N\NC(=O)C2COc3ccccc3O2)c1O (stereo unspecified)	active: 104%
11	CCn1cc(CN2CCC(n3nccc3NC(=O)Cc3ccccc3)CC2)cn1	inconclusive: 46.8%
12	COC(=O)N/N=C/c1cn(CCCOc2ccc(C)cc2)c2ccccc12	inactive: 8.83%
13	CC/C(=N\NC(=S)Nc1cccc(C)c1)c1ccccc1	active: 61.6%
14	Cn1c(O)c(N=NC(=S)Nc2ccccc2F)c2cc(S(=O)(=O)N3CCOCC3)ccc21	inconclusive: 31.4%
15	Cc1nnc(NC(=O)c2ccc(S(=O)(=O)N(C)Cc3ccccc3)cc2)o1	inconclusive: 44.8%
16	CCOc1cccc(N(C(=O)c2ccco2)C(C(=O)NC2CCCC2)c2cccnc2)c1 (stereo unspecified)	inconclusive: 30.8%
17	COC(=O)C1=C(O)C(C(=O)OC)C(c2ccc(C)cc2)C(C#N)(C#N)C1c1ccc(C)cc1 (stereo unspecified)	inconclusive: 41.3%

# (further entries)

row,Compound,inhibition
1,COc1ccccc1NS(=O)(=O)c1cccc(C(=O)N/N=C/c2ccc(NC(C)=O)cc2)c1,inactive: 1.25%
2,Cc1nn(-c2nc3ccccc3[nH]2)c(=O)c2ccccc12,inconclusive: 47.7%
3,COc1ccc(/C=N/NC(=O)c2ccc3nc[nH]c3c2)c(OC)c1,inactive: -0.258%
4,O=C(COC(=O)c1ccc(-c2ccc([N+](=O)[O-])cc2)o1)NC(=O)NC1CCCCC1,inactive: 23.3%
5,Cc1sc2ncnc(N3CCC(C(=O)Nc4nnc(SCc5ccccc5F)s4)CC3)c2c1C,inconclusive: 37.6%
6,C[C@@H]1CC[C@@]2(OC1)O[C@H]1C[C@H]3[C@@H]4CC=C5C[C@@H](O)[C@H](O)C[C@]5(C)C4CC[C@]3(C)[C@H]1[C@@H]2C (stereo partly specified),inconclusive: 47.2%
7,CC1CCN(c2ccccc2NC(=O)c2cc3ccccc3o2)CC1,inconclusive: 48.4%
8,CCOc1ccc(Cc2c(Cl)nc(SC)nc2OC)cc1,inconclusive: 43.1%
9,Cn1c(=O)[nH]c(=O)c2c1nc(N1CCCCCC1)n2CCCSc1nc2ccccc2o1,inconclusive: 28.4%
10,Nc1ccccc1-n1cccc1,inactive: 37%
11,CC(/C=C1\SC(=O)N(CC(=O)Nc2ccc(O)cc2)C1=O)=C\c1ccccc1,inconclusive: 42.6%
12,CC(C)OC(=O)c1c(NS(=O)(=O)c2ccccc2)sc2c1CCCC2,active: 96.7%
13,CC(NC(=S)NCc1ccc(F)cc1)C12CC3CC(CC(C3)C1)C2 (stereo unspecified),inconclusive: 43%
14,Cc1cc(C)nc(-n2nc(C)cc2NC(=O)CNCc2ccccc2)n1,inactive: -9.96%
15,CCC(C(=O)NCC1CCCO1)n1nc(C)c2sc3ccccc3c2c1=O (stereo unspecified),inconclusive: 24.9%
16,CCCN(CC(=O)Nc1cc(Cl)cc(Cl)c1)CC(=O)Nc1ccc(F)c(F)c1F,active: 82%
17,Cc1ccc(C)c(S(=O)(=O)N2CCN(Cc3ccc(O)c4ncccc34)CC2)c1,inconclusive: 31.7%
18,Cn1c(-c2ccccc2)cc(=O)c2ccccc21,inactive: -3.96%
19,O=C(NC(NC(=S)Nc1c(Cl)cccc1Cl)C(Cl)(Cl)Cl)OCc1ccccc1 (stereo unspecified),active: 76.8%

row,Compound,inhibition
1,CCCCSc1nc(C)cc(SCC(=O)N/N=C/c2cccc(OC)c2O)n1,active: 69.8%
2,COC(=O)C1=C(Nc2ccccc2NC(=O)c2ccccc2C(=O)O)CSC1,inactive: 2.62%
3,Cn1c(=O)c(NC(=O)c2ccccc2)c2n(c1=S)CCCCC2,inconclusive: 7.49%
4,O=[N+]([O-])c1cc(CN2CCN(c3ccccc3)CC2)c(O)c2ncccc12,inconclusive: 32.9%
5,COc1ccccc1-c1cc(-c2ccccc2)nc(SCC(=O)O)c1C#N,active: 83.8%
6,COc1ccc(O)c(CN2CCC(n3nccc3NC(=O)CCOc3ccccc3)CC2)c1,inconclusive: 47.9%
7,CCc1cc2c(=O)c(-c3ccc4c(c3)OCCO4)coc2c(CN2CCCCC2C)c1O (stereo unspecified),inconclusive: 39.8%
8,CCCCc1ccc(NC(=O)NCc2ccccn2)cc1,inconclusive: 38.7%
9,CCN(CC)c1ccc(-n2cc3c(=O)n(C)c(=O)n(C)c3c2)cc1,inconclusive: 48.5%
10,CC1(C)Cc2c(sc(NC(=O)c3ccc(C(=O)c4ccccc4)cc3)c2C(N)=O)C(C)(C)N1,inconclusive: 46.3%
11,O=C(Nc1cccc(S(=O)(=O)Nc2ccccc2F)c1)c1ccc2ccccc2n1,inconclusive: 39%
12,COc1cc(/C=C/C(=O)NC(C)(C)C)ccc1OCc1ccccc1,inactive: -1.6%
13,O=C(O)c1ccc(N=Nc2c(O)[nH]c3ccc(Br)cc23)cc1,active: 71%
14,O=C(CSc1nnc(CNC(=O)c2cccc(C(F)(F)F)c2)o1)NC1CCCCC1,inconclusive: 47.8%
15,Cc1cc(NC(=O)c2ccccc2F)nc2c1c(=O)oc1ccccc12,inactive: -4.24%
16,COc1ccc(C2c3ccc(O)cc3Oc3ncn4nc(-c5ccncc5)nc4c32)cc1OC (stereo unspecified),inconclusive: 49.3%
17,O=S1(=O)C=C(Sc2nc3cc(Cl)ccc3o2)c2ccccc21,inconclusive: -3.49%
18,Cc1noc(C)c1-c1nnc(-c2ccc(OC(F)(F)F)cc2)o1,inconclusive: 30.7%
